# Measurements: PubChem BioAssay
# The list shows a part of the results. Shown are side measurements of this screen, not its main read-out; they come without a call.
# Assay: PubChem AID 1586
# Details: yeast two-hybrid polyglutamine protein interaction, reporter readout; measured here: averaged growth delta OD
row,Structure (SMILES),signal change (36 h minus 0 h)
1,NCC(O)c1ccc(O)cc1 (stereo not given),0.164
2,CC(=O)OCC1=C(C(=O)O)N2C(=O)[C@@H](NC(=O)CCCC(N)C(=O)O)C2SC1 (stereo not given in full),0.0782
3,CCC(=O)O[C@H]1CCC2C3CCC4=CC(=O)CC[C@]4(C)C3CC[C@@]21C (stereo not given in full),0.0906
4,CC(N)C(O)c1ccccc1 (stereo not given),0.142
5,CCNC(C)Cc1cccc(C(F)(F)F)c1 (stereo not given),0.203
6,C#CC1(O)CCC2C3CCC4=CC(=O)CCC4(C)C3CCC21C (stereo not given),0.064
7,CN1C(=O)C(O)N=C(c2ccccc2)c2cc(Cl)ccc21 (stereo not given),0.289
8,C[N+](C)(C)CC#CCN1CCCC1=O,0.202
9,CC(=O)C1=C(O)C2C3c4c[nH]c5cccc(c45)CC3C(C)(C)N2C1=O (stereo not given),0.0324
10,CCCC(C)C1(CC)C(=O)N=C(S)NC1=O (stereo not given),0.381
11,CN[C@@H](C)[C@@H](O)c1ccccc1,0.114
12,O=C1Nc2ccc(Cl)cc2C(c2ccccc2Cl)=NC1O (stereo not given),0.186
13,N#CC(O[C@@H]1O[C@H](CO[C@@H]2O[C@H](CO)[C@@H](O)[C@H](O)[C@H]2O)[C@@H](O)[C@H](O)[C@H]1O)c1ccccc1 (stereo not given in full),0.051
14,CC[C@@H](CO)NC(=O)[C@@H]1C=C2c3cccc4[nH]cc(c34)C[C@H]2N(C)C1,0.133
15,CN1C2CC(OC(=O)[C@H](CO)c3ccccc3)C[C@H]1CC2O (stereo not given in full),0.136
16,CC(C)(C)NCC(O)c1ccccc1Cl (stereo not given),0.0781
17,O=C(O)CCCc1ccc(N(CCCl)CCCl)cc1,0.244
18,[N-]=[N+]=CC(=O)OCC(N)C(=O)O (stereo not given),0.0951
19,CNC(C)Cc1ccc2c(c1)OCO2 (stereo not given),0.14
20,O=[N+]([O-])c1cc([As](=O)(O)O)ccc1O,0.198

# Reprinted: nos. 9 to 10
row,Structure (SMILES),signal change (36 h minus 0 h)
9,CC(=O)C1=C(O)C2C3c4c[nH]c5cccc(c45)CC3C(C)(C)N2C1=O (stereo not given),0.0324
10,CCCC(C)C1(CC)C(=O)N=C(S)NC1=O (stereo not given),0.381
